Our source for the binding signal values is publication PMC7819943, “Rice protein-binding microarrays: a tool to detect cis-acting elements near promoter regions in rice”.

This is one part of the list.

The assay concerns the target T1, OsSMF1 (Oryza sativa, UniProt Q6ZLB0 1-436).
T1 sequence: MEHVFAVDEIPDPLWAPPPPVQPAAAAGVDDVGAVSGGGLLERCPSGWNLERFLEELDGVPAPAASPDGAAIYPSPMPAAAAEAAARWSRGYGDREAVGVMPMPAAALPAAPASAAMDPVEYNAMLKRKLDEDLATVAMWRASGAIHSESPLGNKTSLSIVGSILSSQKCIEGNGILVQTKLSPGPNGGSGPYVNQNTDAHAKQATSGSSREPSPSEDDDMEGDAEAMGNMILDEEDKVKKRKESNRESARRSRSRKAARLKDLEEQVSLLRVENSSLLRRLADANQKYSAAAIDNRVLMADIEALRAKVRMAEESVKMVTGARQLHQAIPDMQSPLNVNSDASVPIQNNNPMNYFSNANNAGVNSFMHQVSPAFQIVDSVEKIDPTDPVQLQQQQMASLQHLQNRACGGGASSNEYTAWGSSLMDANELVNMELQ
Briefly: protein-binding microarray (RPBM); PBS, 2% BSA, 51.3 ng/ul salmon testes DNA, 50 uM zinc acetate, 200 nM TF, 25 C, 1 h; high values mean tight binding. The settings on record: protein: recombinant; tags: N-terminal polyhistidine and DsRed monomer fusion (pET32a); chain copies: 2; label: CyDye5-dUTP incorporated in the synthesized complementary strand; 3' TTTTT single-stranded linker to array surface; dsDNA, one strand shown. An outline of the steps:
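Ni–NTA purification followed expression in E. coli BL21-CodonPlus of transcription factors fused N-terminally to a polyhistidine tag and DsRed. At 200 nM in PBS with 2% BSA, salmon testes DNA and 50 µM zinc acetate, the protein was incubated for 1 h at 25 °C with a custom Agilent array that had been primer-extended with Cy5-dUTP and blocked with 2% BSA. After washing, the array was read on an Axon 4000B scanner. The binding signal is per-feature fluorescence intensity in arbitrary units.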
As to “AAGAATCGAAACGTTAGAAAAGAGGACACGTCGCCAAAAGCGGAGTCACCTAGTGCAG”, the binding signal is 3520 fluorescence intensity (a.u.).

“GTCCTGGTGTTCCGATCGATCGACGTGGTGTACATGCATCCGGAGTCACCTAGTGCAG”: the binding signal was 4910 fluorescence intensity (a.u.).

As for “CCAGTAGAGATGGCTTTCGTGAGCGTGGTGCACATGATCTCGGAGTCACCTAGTGCAG”, the binding signal was 19700 fluorescence intensity (a.u.). With “GACCATTCAACTTCTCGTTATCGACAAGTACTCCTCGAAACGGAGTCACCTAGTGCAG”, the binding signal was 4080 fluorescence intensity (a.u.).

Consider “ATTGATTGGCCCAAGATATCCATCGGCATCGGCGCCGGCGCGGAGTCACCTAGTGCAG”, for which the binding signal was 3660 fluorescence intensity (a.u.). For “GTGATATGACATGGTTGTTCCATCGACGTGGTATACTATTCGGAGTCACCTAGTGCAG”, the binding signal was 4510 fluorescence intensity (a.u.). With “GTATTGATCATATTGTGTGCATTTATGGTGTATCAAAATACGGAGTCACCTAGTGCAG” the figure was 29400 fluorescence intensity (a.u.); with “GGTGGCGGCGCGGGCCGGGCGGCGGCGGCGGCGGCGGCTCCGGAGTCACCTAGTGCAG”, 40400 fluorescence intensity (a.u.); with “ACCACCTTCTGATCAGCCAAACTCACGTTAGAACATCTCACGGAGTCACCTAGTGCAG”, 3140 fluorescence intensity (a.u.). With “GATTATAAAATATGAATAGTACTTTACGTGTGACTTATGTCGGAGTCACCTAGTGCAG” the figure was 3700 fluorescence intensity (a.u.). To “CTTATCAGTCGTAGCTCAACCTATAAGAGGCCTAAATATACGGAGTCACCTAGTGCAG” belongs 32800 fluorescence intensity (a.u.); to “ACTCGGAGAAAACAAGCCATCACAATCACGAATTGAAGAACGGAGTCACCTAGTGCAG”, 3420 fluorescence intensity (a.u.). Consider “GATGGACGGAGCACCCACTGCTGCGGGCGTGAGGTGTCGCCGGAGTCACCTAGTGCAG”, for which the binding signal was 4410 fluorescence intensity (a.u.). With “TACACTCATTATCCGACAATCAGTTCTGACATGGTTGAACCGGAGTCACCTAGTGCAG” the figure was 3260 fluorescence intensity (a.u.); with “TAAATTAGGTGATACGTCATCCTCGTGTGCGCGGTCGTGGCGGAGTCACCTAGTGCAG”, 10300 fluorescence intensity (a.u.). To “CTTTATTTCCTTGCATGTCAACTATAAACCTACACCTCCTCGGAGTCACCTAGTGCAG” belongs 3430 fluorescence intensity (a.u.); to “GGATCTACAATGAACGAAATAACGCGTGGCATTGTACTCTCGGAGTCACCTAGTGCAG”, 5510 fluorescence intensity (a.u.); to “CACACCCTCTCCCCTCCTCCATGCTTCTACGTCATCGTCACGGAGTCACCTAGTGCAG”, 7160 fluorescence intensity (a.u.).

Turning to “TTAGTCACTGTTTGGCATATTCCACGTTAGATTTAAAACTCGGAGTCACCTAGTGCAG”, the binding signal is 4200 fluorescence intensity (a.u.). To “CAACGTGACAAGAAAACTTTAGTCACGGGATCCAAACGCTCGGAGTCACCTAGTGCAG” belongs 3190 fluorescence intensity (a.u.). With “AGCCGCTTGGCCACCCCTCGCCACCTGGTCATCGCTGCCGCGGAGTCACCTAGTGCAG”, the binding signal is 4680 fluorescence intensity (a.u.). To “GTGTGAGATCCATTTGTCACTTACACACCCTCTTTCTCTTCGGAGTCACCTAGTGCAG” belongs 3520 fluorescence intensity (a.u.).

Regarding “GCATCGCCCTGCCGCCGACGACCGTCGCCATCGCGCCCTGCGGAGTCACCTAGTGCAG”, the binding signal was 3300 fluorescence intensity (a.u.). To “CATCTTCCCCTCCCTCACTCGCTGACGCGTGGGGCCAGCGCGGAGTCACCTAGTGCAG” belongs 4190 fluorescence intensity (a.u.); to “TTTCTACAGTTTTAACTGATTCTGCATATGTTGGCTTCTCCGGAGTCACCTAGTGCAG”, 3270 fluorescence intensity (a.u.); to “CAGCGGGTCAACGAGCGAAGACGAAGGTGACAGGGCAAGCCGGAGTCACCTAGTGCAG”, 32500 fluorescence intensity (a.u.). For the sequence “CTCGCATAATCTTGTATCCCTCATCTCAGATTATCATCACCGGAGTCACCTAGTGCAG”, the binding signal was 3210 fluorescence intensity (a.u.). As for “TCTCTGTCAGATCATCAGACGCAATATTGTGCTCTCTGTCCGGAGTCACCTAGTGCAG”, the binding signal is 4470 fluorescence intensity (a.u.). To “CTGAAACCAATAAATTGTAGACGTGGTACAATTCTGACTCCGGAGTCACCTAGTGCAG” belongs 3960 fluorescence intensity (a.u.); to “GAGTTGTGCGTATTGTTCCCTGCGTCACTGCGTGCTCTTGCGGAGTCACCTAGTGCAG”, 5700 fluorescence intensity (a.u.). As for “GCATCGTGGGGTGTGGGTGGCGGTTTTGGAGGGGAGAGGTCGGAGTCACCTAGTGCAG”, the binding signal was 4780 fluorescence intensity (a.u.).

With “TGCTGATACCGAGACACCTCATCCCTTTCACCGCGGTATCCGGAGTCACCTAGTGCAG”, the binding signal is 5170 fluorescence intensity (a.u.). To “ATGTACCGCATATACTTTAGACAATATAACATCGAGTGAACGGAGTCACCTAGTGCAG” belongs 7260 fluorescence intensity (a.u.); to “CTGAGATCCGGCGGCCGCTGACCGGGCTCGACGACACGCTCGGAGTCACCTAGTGCAG”, 3240 fluorescence intensity (a.u.). As for “ATTTCGCCTGAGCCACGCGTCGCTCCCTCTCCTCTTCTCCCGGAGTCACCTAGTGCAG”, the binding signal was 3410 fluorescence intensity (a.u.). As to “GGAACTGTCACTGCTTTGTCAGACGTTCGCCTATAATTCACGGAGTCACCTAGTGCAG”, the binding signal was 5300 fluorescence intensity (a.u.). “GGTTGGGAGAAAAGCCCCACATGTCAGTGACACGGCCAGCCGGAGTCACCTAGTGCAG”: the binding signal was 5240 fluorescence intensity (a.u.).

Regarding “GATTGGCTGTGAGTGGTGTTAACCTAGCTGGACTCGGTTCCGGAGTCACCTAGTGCAG”, the binding signal is 3260 fluorescence intensity (a.u.). With “CACGTGGGACGAAAACTAGGTCAACATCGCCACGTCAGCGCGGAGTCACCTAGTGCAG”, the binding signal is 45900 fluorescence intensity (a.u.).

Turning to “TCCCACGGAGACGGAGTGAACTCCACGTCCATTGATGGGTCGGAGTCACCTAGTGCAG”, the binding signal is 4520 fluorescence intensity (a.u.). To “AAAAGGGGCTCGCTGGCCGGAGACGAAGACGGAGACGCAGCGGAGTCACCTAGTGCAG” belongs 14200 fluorescence intensity (a.u.); to “CAGAAGAAATGCCACTGTATCATTGATAATAATGCTCTATCGGAGTCACCTAGTGCAG”, 30100 fluorescence intensity (a.u.).
